# Data published in PubChem BioAssay (EPA / NIEHS).
# Protein sequences, listed by entry. Tags and fused reporters are not part of them. Lines headed by an entry give the natural chain unless they say otherwise; changes in a name come on top.
# UniProt P20813: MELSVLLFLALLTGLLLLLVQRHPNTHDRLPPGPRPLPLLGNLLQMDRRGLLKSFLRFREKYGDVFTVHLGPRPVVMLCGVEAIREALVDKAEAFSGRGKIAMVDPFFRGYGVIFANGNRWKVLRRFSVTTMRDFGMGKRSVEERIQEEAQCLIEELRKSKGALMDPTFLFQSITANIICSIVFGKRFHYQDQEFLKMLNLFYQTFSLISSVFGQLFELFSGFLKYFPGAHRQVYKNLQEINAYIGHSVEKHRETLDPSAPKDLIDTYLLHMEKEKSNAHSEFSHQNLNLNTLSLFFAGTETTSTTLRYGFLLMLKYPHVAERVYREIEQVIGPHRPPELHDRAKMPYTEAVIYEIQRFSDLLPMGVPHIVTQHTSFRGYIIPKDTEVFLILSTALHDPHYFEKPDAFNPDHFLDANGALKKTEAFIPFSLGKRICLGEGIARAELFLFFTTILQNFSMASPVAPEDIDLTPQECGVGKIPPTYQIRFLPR
# UniProt P33261, whole entry, looked up: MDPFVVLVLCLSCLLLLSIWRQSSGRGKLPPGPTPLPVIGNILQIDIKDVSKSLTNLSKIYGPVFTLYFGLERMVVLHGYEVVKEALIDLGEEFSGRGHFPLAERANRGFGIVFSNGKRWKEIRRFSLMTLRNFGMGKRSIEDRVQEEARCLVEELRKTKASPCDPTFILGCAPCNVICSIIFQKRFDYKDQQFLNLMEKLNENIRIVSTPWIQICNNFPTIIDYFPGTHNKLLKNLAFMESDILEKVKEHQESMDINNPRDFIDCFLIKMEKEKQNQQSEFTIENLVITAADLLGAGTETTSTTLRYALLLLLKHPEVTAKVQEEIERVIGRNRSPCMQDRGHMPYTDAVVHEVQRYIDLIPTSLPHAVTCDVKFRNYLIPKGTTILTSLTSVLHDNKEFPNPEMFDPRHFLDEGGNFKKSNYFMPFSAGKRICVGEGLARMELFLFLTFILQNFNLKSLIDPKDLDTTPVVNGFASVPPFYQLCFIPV
# UniProt P04406: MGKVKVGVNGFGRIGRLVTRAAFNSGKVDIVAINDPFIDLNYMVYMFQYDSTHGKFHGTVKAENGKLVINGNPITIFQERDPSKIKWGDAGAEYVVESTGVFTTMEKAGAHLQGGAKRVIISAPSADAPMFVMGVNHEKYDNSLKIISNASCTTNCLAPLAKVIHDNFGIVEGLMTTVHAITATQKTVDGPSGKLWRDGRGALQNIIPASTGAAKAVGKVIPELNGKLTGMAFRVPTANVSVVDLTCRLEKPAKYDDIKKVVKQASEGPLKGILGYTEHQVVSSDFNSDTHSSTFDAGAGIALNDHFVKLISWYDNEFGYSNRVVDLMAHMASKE
# UniProt P11712, whole entry, looked up: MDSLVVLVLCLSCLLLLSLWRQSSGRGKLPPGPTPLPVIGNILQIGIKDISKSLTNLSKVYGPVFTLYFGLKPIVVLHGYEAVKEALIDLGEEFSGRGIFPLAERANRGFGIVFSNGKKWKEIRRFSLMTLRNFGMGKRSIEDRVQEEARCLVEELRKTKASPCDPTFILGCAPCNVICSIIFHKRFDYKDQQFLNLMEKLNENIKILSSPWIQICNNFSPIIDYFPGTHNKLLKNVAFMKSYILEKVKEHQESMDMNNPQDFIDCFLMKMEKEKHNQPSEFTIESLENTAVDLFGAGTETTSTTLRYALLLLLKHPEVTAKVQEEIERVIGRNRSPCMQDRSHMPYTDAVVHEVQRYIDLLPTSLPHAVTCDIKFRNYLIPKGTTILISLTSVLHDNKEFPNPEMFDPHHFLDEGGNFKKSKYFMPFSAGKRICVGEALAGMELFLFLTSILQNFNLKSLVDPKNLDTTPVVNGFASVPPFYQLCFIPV
# UniProt Q9UNQ0: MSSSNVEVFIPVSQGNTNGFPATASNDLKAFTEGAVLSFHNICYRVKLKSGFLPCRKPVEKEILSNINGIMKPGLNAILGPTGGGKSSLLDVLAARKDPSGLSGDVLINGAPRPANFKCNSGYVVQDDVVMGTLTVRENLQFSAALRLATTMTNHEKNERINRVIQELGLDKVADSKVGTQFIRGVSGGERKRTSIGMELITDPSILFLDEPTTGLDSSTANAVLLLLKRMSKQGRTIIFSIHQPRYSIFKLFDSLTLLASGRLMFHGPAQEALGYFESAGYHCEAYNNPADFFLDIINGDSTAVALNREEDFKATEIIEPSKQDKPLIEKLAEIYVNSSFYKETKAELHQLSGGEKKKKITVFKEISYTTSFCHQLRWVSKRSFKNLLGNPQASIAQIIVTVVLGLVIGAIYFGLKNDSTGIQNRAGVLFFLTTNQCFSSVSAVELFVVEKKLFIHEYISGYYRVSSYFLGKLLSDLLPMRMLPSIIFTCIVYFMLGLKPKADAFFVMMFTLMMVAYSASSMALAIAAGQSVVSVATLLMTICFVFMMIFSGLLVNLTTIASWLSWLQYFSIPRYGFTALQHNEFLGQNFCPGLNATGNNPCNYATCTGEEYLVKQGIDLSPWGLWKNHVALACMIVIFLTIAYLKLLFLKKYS
# UniProt P08684, whole entry, looked up: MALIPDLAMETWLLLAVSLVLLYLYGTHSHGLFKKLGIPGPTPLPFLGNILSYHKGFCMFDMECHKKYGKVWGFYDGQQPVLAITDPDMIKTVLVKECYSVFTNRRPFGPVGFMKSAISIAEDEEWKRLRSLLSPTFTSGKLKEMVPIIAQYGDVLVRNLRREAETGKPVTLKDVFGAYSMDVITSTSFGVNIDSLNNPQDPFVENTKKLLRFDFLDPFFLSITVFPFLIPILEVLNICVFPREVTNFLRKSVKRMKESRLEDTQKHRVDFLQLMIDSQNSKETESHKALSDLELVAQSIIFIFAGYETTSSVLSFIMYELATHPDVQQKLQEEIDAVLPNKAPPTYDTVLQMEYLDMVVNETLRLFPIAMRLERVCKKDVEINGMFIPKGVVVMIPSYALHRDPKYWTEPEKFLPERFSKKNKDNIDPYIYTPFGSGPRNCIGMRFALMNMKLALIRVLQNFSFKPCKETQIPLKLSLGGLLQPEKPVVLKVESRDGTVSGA
# Inconclusive results, whose numbers are uncertain, are shown with a selection of clear calls. For part of these data: Where the call is inconclusive, the potency comes from a doubtful curve fit. Activity calls are given as the source filed them. How the source made its calls, unless noted: active means hit-call score of the fitted dose curve at least 0.9, where 1 is the maximum; inconclusive means response in the unintended direction; inactive means score below 0.9.
# Tests used:
# [1] = read-out: organic anion transporter (SLCO1B1), SLCO1B1 (gene 10599); assay: CLD_SLCO1B1_24hr: CellzDirect (CLD) Gene Expression Assay for organic anion transporter (SLCO1B1) at 24 hours (AID 2283690)
# How it was run: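 SLCO1B1 mRNA induction read at 24 h by quantitative nuclease protection assay (chemiluminescence), analyzed against DMSO baseline. Human hepatocyte cultures from separate donors received fresh dosing solutions daily; vehicle 0.2% DMSO; cytotoxicity flagged by phase-contrast morphology.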
# [2] = read-out: ABC Transporter (ABCB1), ABCB1 (gene 5243); assay: CLD_ABCB1_48hr: CellzDirect (CLD) Gene Expression Assay for ABC Transporter (ABCB1) at 48 hours (AID 2283695);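 further: potency for induction meaning increase of mRNA over DMSO vehicle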
# How it was run: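 ABCB1 mRNA was measured by quantitative nuclease protection assay (chemiluminescence) 48 h after dosing. Human hepatocyte cultures from two separate donors received fresh dosing solutions daily for two days, with 0.2% DMSO as vehicle. Positive-direction fit against DMSO.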
# [3] = read-out: Cytochrome P450 2B6 (Homo sapiens) (UniProt P20813); assay: CLD_CYP2B6_48hr: CellzDirect (CLD) Gene Expression Assay for xenobiotic metabolism (CYP2B6) at 48 hours (AID 2283699);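 further: actives raise transcript level above DMSO so potency reflects induction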
# How it was run: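 CYP2B6 transcript induction, read by quantitative nuclease protection (S1 digestion, chemiluminescent detection) 48 h after dosing, is fitted upward against 0.2% DMSO. Cultured human liver primary cells, two donor preparations, received fresh chemical daily over multiple concentrations.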
# [4] = read-out: Cytochrome P450 2C19 (Homo sapiens) (UniProt P33261); assay: CLD_CYP2C19_48hr: CellzDirect (CLD) Gene Expression Assay for xenobiotic metabolism (CYP2C19) at 48 hours (AID 2283700);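 on outcome: fitted upward so actives raise CYP2C19 mRNA above the 0.2% DMSO vehicle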
# How it was run: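 CYP2C19 mRNA induction read by chemiluminescent quantitative nuclease protection assay after 48 h, with fresh compound added daily for two days to cultured human liver hepatocytes. Activity fitted upward against 0.2% DMSO vehicle.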
# [5] = CLD_ACTIN_48hr: CellzDirect (CLD) Gene Expression Assay for Baseline Control (Actin) at 48 hours (AID 2283702)
# How it was run: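 Background-control actin mRNA read by qNPA chemiluminescence at 48 h. Human hepatocyte cultures from two donors received fresh multi-concentration chemical doses daily for two days; 0.2% DMSO served as vehicle baseline.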
# [6] = read-out: xenobiotic metabolism (CYP1A1), CYP1A1 (gene 1543); assay: CLD_CYP1A1_48hr: CellzDirect (CLD) Gene Expression Assay for xenobiotic metabolism (CYP1A1) at 48 hours (AID 2283705)
# How it was run: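 CYP1A1 transcript measured by quantitative nuclease protection (chemiluminescent) 48 h after two daily treatments of human hepatocyte cultures, versus 0.2% DMSO. Morphology-based cytotoxicity flags accompany data; two donor preparations used.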
# [7] = read-out: Glyceraldehyde-3-phosphate dehydrogenase (Homo sapiens) (UniProt P04406); assay: CLD_GAPDH_48hr: CellzDirect (CLD) Gene Expression Assay for Baseline Control (Glyceraldehyde 3-phosphate dehydrogenase) at 48 hours (AID 2283706);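 on outcome: active means higher GAPDH mRNA than DMSO vehicle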
# How it was run: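 GAPDH baseline-control readout: qNPA chemiluminescent mRNA quantitation in human liver primary cells 48 h after daily dosing on two consecutive days, vehicle 0.2% DMSO; gain of signal fitted against DMSO, cytotoxicity flagged by phase-contrast morphology.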
# [8] = read-out: organic anion transporter (SLCO1B1), SLCO1B1 (gene 10599); assay: CLD_SLCO1B1_48hr: CellzDirect (CLD) Gene Expression Assay for organic anion transporter (SLCO1B1) at 48 hours (AID 2283707)
# How it was run: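 SLCO1B1 transcript quantified by qNPA with chemiluminescent readout after 48 h of once-daily chemical exposure. Cultured human primary hepatocytes came from two donors, with 0.2% DMSO vehicle; positive-direction fitting against DMSO, cytotoxicity flagged by morphology.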
# [9] = read-out: alkyl and aryl transferase (GSTA2), GSTA2 (gene 2939); assay: CLD_GSTA2_48hr: CellzDirect (CLD) Gene Expression Assay for alkyl and aryl transferase (GSTA2) at 48 hours (AID 2283708);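 further: active means mRNA induction above DMSO vehicle baseline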
# How it was run: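 GSTA2 mRNA quantified by qNPA chemiluminescence in human primary hepatocyte lysates after 48 h of daily fresh chemical dosing. Increases fitted against 0.2% DMSO vehicle baseline; cytotoxicity from morphology annotated yes/no.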
# [10] = read-out: Cytochrome P450 2C9 (Homo sapiens) (UniProt P11712); assay: CLD_CYP2C9_24hr: CellzDirect (CLD) Gene Expression Assay for xenobiotic metabolism (CYP2C9) at 24 hours (AID 2283688);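 on AC50: potency for induction meaning a rise in CYP2C9 mRNA over DMSO vehicle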
# How it was run: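 Induction of CYP2C9 mRNA was quantified by quantitative nuclease protection assay (chemiluminescence), gain of signal versus 0.2% DMSO vehicle, 24 h after dosing. Human primary hepatocytes (two donors) received fresh chemical daily at multiple concentrations; morphology-based cytotoxicity flagged yes/no.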
# [11] = read-out: HMG-CoA synthase (HMGCS2), HMGCS2 (gene 3158); assay: CLD_HMGCS2_24hr: CellzDirect (CLD) Gene Expression Assay for HMG-CoA synthase (HMGCS2) at 24 hours (AID 2283691)
# How it was run: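 qNPA with S1 nuclease digestion and chemiluminescent detection gave HMGCS2 transcript levels, fitted upward against 0.2% DMSO vehicle. Cultured human hepatocytes (two donors) received fresh compound daily and were harvested at 24 h; phase-contrast morphology flagged cytotoxicity.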
# [12] = read-out: Glyceraldehyde-3-phosphate dehydrogenase (Homo sapiens) (UniProt P04406); assay: CLD_GAPDH_24hr: CellzDirect (CLD) Gene Expression Assay for Baseline Control (Glyceraldehyde 3-phosphate dehydrogenase) at 24 hours (AID 2283692)
# How it was run: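 GAPDH baseline-control readout: qNPA chemiluminescent mRNA signal in human primary hepatocytes harvested 24 h after daily dosing, normalised to 0.2% DMSO with positive fitting direction; cytotoxicity annotated by phase-contrast morphology.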
# [13] = read-out: alkyl and aryl transferase (GSTA2), GSTA2 (gene 2939); assay: CLD_GSTA2_24hr: CellzDirect (CLD) Gene Expression Assay for alkyl and aryl transferase (GSTA2) at 24 hours (AID 2283693)
# How it was run: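 GSTA2 transcript levels were quantified by quantitative nuclease protection assay in primary human hepatocytes 24 h after daily dosing with fresh solutions at multiple concentrations; 0.2% DMSO vehicle as baseline, cytotoxicity flagged morphologically.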
# [14] = read-out: Broad substrate specificity ATP-binding cassette transporter ABCG2 (Homo sapiens) (UniProt Q9UNQ0); assay: CLD_ABCG2_48hr: CellzDirect (CLD) Gene Expression Assay for ABC Transporter (ABCG2) at 48 hours (AID 2283704);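 on AC50: potency for induction of ABCG2 mRNA above the DMSO baseline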
# How it was run: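 ABCG2 transcript measured at 48 h by quantitative nuclease protection (chemiluminescent) and fitted for increase relative to 0.2% DMSO. Hepatocyte cultures from separate donors got fresh compound daily over two days; morphology annotated cytotoxicity.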
# [15] = read-out: ABC Transporter (ABCB11), ABCB11 (gene 8647); assay: CLD_ABCB11_48hr: CellzDirect (CLD) Gene Expression Assay for ABC Transporter (ABCB11) at 48 hours (AID 2283697)
# How it was run: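 Induction of ABCB11 mRNA relative to 0.2% DMSO, measured at 48 h by qNPA chemiluminescence. Cultured human hepatocytes (two donors) received fresh dosing solutions at several concentrations on two consecutive days.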
# [16] = read-out: Cytochrome P450 2C19 (Homo sapiens) (UniProt P33261); assay: CLD_CYP2C19_24hr: CellzDirect (CLD) Gene Expression Assay for xenobiotic metabolism (CYP2C19) at 24 hours (AID 2283687)
# How it was run: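 CYP2C19 mRNA was quantified by qNPA chemiluminescence after 24 h of daily dosing of cultured human primary hepatocytes from two donors; vehicle was 0.2% DMSO, and increases over DMSO baseline were fitted.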
# [17] = read-out: sulfotransferase (SULT2A), SULT2A1 (gene 6822); assay: CLD_SULT2A_24hr: CellzDirect (CLD) Gene Expression Assay for sulfotransferase (SULT2A) at 24 hours (AID 2283694);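 further: potency for increased SULT2A1 mRNA level as induction over DMSO baseline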
# How it was run: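 mRNA is measured by qNPA: probe hybridisation, S1 nuclease digestion, chemiluminescence, in lysates from human primary hepatocytes harvested 24 h after daily dosing. Vehicle was 0.2% DMSO. Phase-contrast microscopy flagged cytotoxicity (yes/no).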
# [18] = read-out: xenobiotic metabolism (CYP2C9), CYP2C9 (gene 1559); assay: CLD_CYP2C9_48hr: CellzDirect (CLD) Gene Expression Assay for xenobiotic metabolism (CYP1A2) at 48 hours (AID 2283701; active means hit-call score of the fitted dose curve at least 0.9, where 1 is the maximum; inactive means score below 0.9)
# How it was run: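 mRNA level measured by quantitative nuclease protection (S1 digestion, chemiluminescent detection) in lysates of human primary hepatocytes exposed 48 h with daily re-dosing. Induction fitted positively versus 0.2% DMSO; morphology-based cytotoxicity flagged yes/no.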
# [19] = read-out: Cytochrome P450 3A4 (Homo sapiens) (UniProt P08684); assay: CLD_CYP3A4_24hr: CellzDirect (CLD) Gene Expression Assay for xenobiotic metabolism (CYP3A4) at 24 hours (AID 2283689)
# How it was run: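 CYP3A4 mRNA induction read by quantitative nuclease protection (chemiluminescence) 24 hr after dosing. Cultured human hepatocytes (two donor preparations) treated daily, vehicle 0.2% DMSO; phase-contrast morphology annotates cytotoxicity.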
smiles,measurement,setting,value
CCOP(=S)(Oc1cnc(C(C)(C)C)nc1)OC(C)C (stereo not given),AC50,[1],inconclusive: 20 µM
same,AC50,[2],active: 4.38 µM
same,AC50,[3],active: 0.427 µM
same,AC50,[4],inconclusive: 20 µM
same,AC50,[5],inconclusive: 1.71 µM
same,AC50,[6],active: 3.91 µM
same,AC50,[7],inconclusive: 0.934 µM
same,AC50,[8],inconclusive: 11.3 µM
same,AC50,[9],active: 20 µM
COc1cccc(C(=O)NN(C(=O)c2cc(C)cc(C)c2)C(C)(C)C)c1C,AC50,[10],inconclusive: 0.000497 µM
same,AC50,[11],inconclusive: 20 µM
same,AC50,[12],inconclusive: 20 µM
same,AC50,[13],inconclusive: 20 µM
same,outcome,[4],inactive
same,AC50,[5],inconclusive: 20 µM
same,AC50,[14],inconclusive: 20 µM
same,AC50,[6],active: 10.1 µM
same,AC50,[7],inconclusive: 12.6 µM
same,outcome,[8],inactive
O=C(O)COc1nc(Cl)c(Cl)cc1Cl,AC50,[1],inconclusive: 20 µM
same,outcome,[11],inactive
same,AC50,[13],inconclusive: 20 µM
same,AC50,[15],inconclusive: 1.34 µM
same,AC50,[4],inconclusive: 1.28 µM
same,AC50,[5],inconclusive: 20 µM
same,outcome,[6],inactive
same,outcome,[7],inactive
same,AC50,[9],inconclusive: 4.01 µM
C[C@H]1[C@H](c2ccc(Cl)cc2)SC(=O)N1C(=O)NC1CCCCC1,AC50,[16],inconclusive: 20 µM
same,AC50,[1],inconclusive: 20 µM
same,AC50,[11],inconclusive: 12.1 µM
same,AC50,[12],inconclusive: 10.7 µM
same,AC50,[2],active: 35.5 µM
same,AC50,[15],inconclusive: 20 µM
same,AC50,[3],active: 1.9 µM
same,AC50,[5],inconclusive: 0.101 µM
same,AC50,[14],active: 34.8 µM
same,AC50,[7],inconclusive: 20 µM
same,AC50,[8],inconclusive: 20 µM
same,AC50,[9],active: 34.4 µM
Cc1c(F)c(F)c(COC(=O)C2C(/C=C(\Cl)C(F)(F)F)C2(C)C)c(F)c1F (stereo not given),AC50,[10],inconclusive: 0.0004 µM
same,outcome,[11],inactive
same,AC50,[12],inconclusive: 20 µM
same,AC50,[17],inconclusive: 0.0004 µM
same,outcome,[15],inactive
same,AC50,[4],inconclusive: 20 µM
same,AC50,[7],inconclusive: 20 µM
same,AC50,[8],inconclusive: 0.186 µM
CO/C=C(/C(=O)OC)c1ccccc1Oc1cc(Oc2ccccc2C#N)ncn1,AC50,[12],inconclusive: 20 µM
same,outcome,[13],inactive
same,AC50,[2],active: 30.2 µM
same,AC50,[15],inconclusive: 20 µM
same,AC50,[4],inconclusive: 26.9 µM
same,outcome,[5],inactive
same,AC50,[6],inconclusive: 0.19 µM
same,AC50,[7],inconclusive: 20 µM
same,AC50,[8],inconclusive: 20 µM
same,AC50,[9],active: 20 µM
C[N+]1(C)CCCCC1,AC50,[1],inconclusive: 0.0004 µM
same,AC50,[12],inconclusive: 20 µM
same,AC50,[17],inconclusive: 0.00361 µM
same,outcome,[15],inactive
same,outcome,[4],inactive
same,AC50,[18],active: 0.0004 µM
same,outcome,[5],inactive
same,AC50,[6],inconclusive: 0.00328 µM
same,outcome,[8],inactive
CCOP(=O)(OCC)Oc1nc(Cl)c(Cl)cc1Cl,AC50,[16],inconclusive: 0.0004 µM
same,outcome,[1],inactive
same,outcome,[11],inactive
same,AC50,[2],inconclusive: 20 µM
same,AC50,[4],inconclusive: 1.54 µM
same,AC50,[5],inconclusive: 7.59 µM
same,AC50,[6],inconclusive: 0.0364 µM
same,AC50,[8],inconclusive: 20 µM
CC[C@H](C)[C@H]1O[C@]2(C=C[C@@H]1C)C[C@@H]1C[C@@H](C/C=C(\C)[C@@H](O[C@H]3C[C@H](OC)[C@@H](O[C@H]4C[C@H](OC)[C@@H](NC)[C@H](C)O4)[C@H](C)O3)[C@@H](C)/C=C/C=C3\CO[C@@H]4[C@H](O)C(C)=C[C@@H](C(=O)O1)[C@]34O)O2,outcome,[10],inactive
same,AC50,[1],inconclusive: 0.189 µM
same,AC50,[13],inconclusive: 3.79 µM
same,AC50,[17],active: 0.336 µM
same,outcome,[15],inactive
same,AC50,[3],inconclusive: 1.09 µM
same,AC50,[4],inconclusive: 2 µM
same,outcome,[5],inactive
same,outcome,[14],inactive
same,AC50,[6],inconclusive: 2 µM
same,outcome,[8],inactive
same,AC50,[9],inconclusive: 0.608 µM
O=C(O)CCCOc1ccc(Cl)cc1Cl,outcome,[19],inactive
same,outcome,[11],inactive
same,AC50,[13],inconclusive: 20 µM
same,outcome,[3],inactive
same,outcome,[4],inactive
same,outcome,[5],inactive
same,AC50,[7],inconclusive: 20 µM
same,AC50,[8],inconclusive: 3.97 µM
same,AC50,[9],inconclusive: 20 µM
CC1(C)CCC(=Cc2ccc(Cl)cc2)C1(O)Cn1cncn1 (stereo not given),AC50,[16],inconclusive: 20 µM
same,AC50,[11],inconclusive: 20 µM
same,AC50,[13],inconclusive: 3.4 µM
same,AC50,[3],active: 4.01 µM
same,AC50,[4],inconclusive: 20 µM
same,AC50,[5],inconclusive: 5.96 µM
same,AC50,[7],inconclusive: 20 µM
same,AC50,[8],inconclusive: 3.97 µM
same,AC50,[9],inconclusive: 5.46 µM

# Five neighbouring records already listed:
smiles,measurement,setting,value
Cc1c(F)c(F)c(COC(=O)C2C(/C=C(\Cl)C(F)(F)F)C2(C)C)c(F)c1F (stereo not given),AC50,[10],inconclusive: 0.0004 µM
same,outcome,[11],inactive
same,AC50,[12],inconclusive: 20 µM
same,AC50,[17],inconclusive: 0.0004 µM
same,outcome,[15],inactive
